log2 fold change data for 36 targets are collected here from the supplement of paper PMC12819154, “High-throughput peptide-centric local stability assay extends protein–ligand identification to membrane proteins, tissues and bacteria” (Nature Structural & Molecular Biology, 2025).

Sequences of proteins named here, by UniProt entry; tags and fusion partners are left off. A change or cut given only in a name is not applied to a line headed by its entry.
UniProt Q80ZI6: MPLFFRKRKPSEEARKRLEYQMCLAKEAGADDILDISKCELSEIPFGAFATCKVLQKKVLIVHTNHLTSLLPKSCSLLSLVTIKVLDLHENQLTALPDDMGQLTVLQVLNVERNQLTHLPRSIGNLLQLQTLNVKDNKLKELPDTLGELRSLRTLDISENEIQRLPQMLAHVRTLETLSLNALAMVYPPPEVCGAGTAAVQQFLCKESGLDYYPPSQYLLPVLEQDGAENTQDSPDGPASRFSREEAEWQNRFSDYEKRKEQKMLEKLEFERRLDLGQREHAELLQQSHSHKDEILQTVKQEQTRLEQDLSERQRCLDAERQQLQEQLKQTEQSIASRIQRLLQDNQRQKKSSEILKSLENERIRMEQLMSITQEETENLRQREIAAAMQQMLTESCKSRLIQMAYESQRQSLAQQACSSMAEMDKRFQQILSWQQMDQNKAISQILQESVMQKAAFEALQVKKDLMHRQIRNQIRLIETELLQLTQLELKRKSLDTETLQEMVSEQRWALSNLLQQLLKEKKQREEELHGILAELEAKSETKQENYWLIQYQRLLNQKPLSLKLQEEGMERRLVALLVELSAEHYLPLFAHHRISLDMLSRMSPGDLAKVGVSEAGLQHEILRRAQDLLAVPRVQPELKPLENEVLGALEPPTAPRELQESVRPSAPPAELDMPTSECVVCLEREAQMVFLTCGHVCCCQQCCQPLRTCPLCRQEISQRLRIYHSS
UniProt Q80XU3: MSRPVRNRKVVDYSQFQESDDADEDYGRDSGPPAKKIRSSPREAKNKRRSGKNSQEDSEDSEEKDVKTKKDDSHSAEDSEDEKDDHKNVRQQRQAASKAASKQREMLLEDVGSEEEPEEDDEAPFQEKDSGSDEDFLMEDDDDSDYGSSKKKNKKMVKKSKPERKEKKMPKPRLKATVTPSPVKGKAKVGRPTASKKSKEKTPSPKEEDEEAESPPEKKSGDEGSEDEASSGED
UniProt Q8BH66: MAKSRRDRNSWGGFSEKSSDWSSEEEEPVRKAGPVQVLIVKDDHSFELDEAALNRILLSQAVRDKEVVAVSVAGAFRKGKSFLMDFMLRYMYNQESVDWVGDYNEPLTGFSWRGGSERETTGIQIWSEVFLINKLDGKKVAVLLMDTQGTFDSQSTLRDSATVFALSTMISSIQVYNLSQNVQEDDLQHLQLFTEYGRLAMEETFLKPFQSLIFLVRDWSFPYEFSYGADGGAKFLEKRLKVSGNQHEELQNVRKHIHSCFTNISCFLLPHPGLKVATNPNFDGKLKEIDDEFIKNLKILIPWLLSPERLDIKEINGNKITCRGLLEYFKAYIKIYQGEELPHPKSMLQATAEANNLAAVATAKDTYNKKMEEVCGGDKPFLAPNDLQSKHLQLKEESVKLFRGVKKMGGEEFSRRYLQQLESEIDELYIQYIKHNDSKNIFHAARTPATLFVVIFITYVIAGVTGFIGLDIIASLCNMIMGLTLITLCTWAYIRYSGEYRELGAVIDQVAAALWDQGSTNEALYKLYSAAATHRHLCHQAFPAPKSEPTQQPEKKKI
UniProt Q8BGQ7, whole entry: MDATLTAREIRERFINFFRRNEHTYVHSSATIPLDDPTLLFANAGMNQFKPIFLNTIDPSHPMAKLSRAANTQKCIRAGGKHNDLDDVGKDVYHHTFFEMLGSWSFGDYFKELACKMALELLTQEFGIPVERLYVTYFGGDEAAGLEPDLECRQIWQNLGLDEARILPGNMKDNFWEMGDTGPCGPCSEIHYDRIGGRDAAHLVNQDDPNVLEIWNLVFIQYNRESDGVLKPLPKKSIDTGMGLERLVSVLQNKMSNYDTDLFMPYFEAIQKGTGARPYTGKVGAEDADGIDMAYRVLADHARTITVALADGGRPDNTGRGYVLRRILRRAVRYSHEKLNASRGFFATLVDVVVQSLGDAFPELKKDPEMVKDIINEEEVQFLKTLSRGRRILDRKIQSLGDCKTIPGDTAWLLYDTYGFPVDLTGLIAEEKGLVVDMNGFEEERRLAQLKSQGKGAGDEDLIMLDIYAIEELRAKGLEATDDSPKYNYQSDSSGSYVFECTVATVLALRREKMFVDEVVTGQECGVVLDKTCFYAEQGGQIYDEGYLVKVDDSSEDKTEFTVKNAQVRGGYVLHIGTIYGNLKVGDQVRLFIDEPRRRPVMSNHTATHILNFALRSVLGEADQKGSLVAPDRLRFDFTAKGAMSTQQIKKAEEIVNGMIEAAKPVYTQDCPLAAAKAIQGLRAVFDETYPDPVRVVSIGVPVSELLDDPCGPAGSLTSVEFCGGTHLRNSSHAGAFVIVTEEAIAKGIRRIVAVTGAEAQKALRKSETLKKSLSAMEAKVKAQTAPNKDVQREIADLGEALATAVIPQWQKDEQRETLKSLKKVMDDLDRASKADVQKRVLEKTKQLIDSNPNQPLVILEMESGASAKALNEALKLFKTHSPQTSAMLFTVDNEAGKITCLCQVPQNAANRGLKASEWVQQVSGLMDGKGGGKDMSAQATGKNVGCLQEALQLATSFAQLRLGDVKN
UniProt Q80ZU4: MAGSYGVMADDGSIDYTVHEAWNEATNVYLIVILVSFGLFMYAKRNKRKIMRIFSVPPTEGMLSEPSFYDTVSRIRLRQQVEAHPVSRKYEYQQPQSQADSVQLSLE
UniProt Q8BHS6: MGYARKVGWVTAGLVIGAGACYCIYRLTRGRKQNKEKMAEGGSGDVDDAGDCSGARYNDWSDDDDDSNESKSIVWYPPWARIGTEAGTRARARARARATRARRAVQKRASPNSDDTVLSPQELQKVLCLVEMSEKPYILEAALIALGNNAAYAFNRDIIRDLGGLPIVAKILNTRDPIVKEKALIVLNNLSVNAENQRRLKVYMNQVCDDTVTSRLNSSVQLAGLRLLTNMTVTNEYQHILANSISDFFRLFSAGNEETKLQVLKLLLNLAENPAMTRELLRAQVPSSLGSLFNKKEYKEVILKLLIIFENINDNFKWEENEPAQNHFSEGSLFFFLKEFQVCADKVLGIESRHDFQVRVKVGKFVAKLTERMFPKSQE
UniProt Q8BGS1: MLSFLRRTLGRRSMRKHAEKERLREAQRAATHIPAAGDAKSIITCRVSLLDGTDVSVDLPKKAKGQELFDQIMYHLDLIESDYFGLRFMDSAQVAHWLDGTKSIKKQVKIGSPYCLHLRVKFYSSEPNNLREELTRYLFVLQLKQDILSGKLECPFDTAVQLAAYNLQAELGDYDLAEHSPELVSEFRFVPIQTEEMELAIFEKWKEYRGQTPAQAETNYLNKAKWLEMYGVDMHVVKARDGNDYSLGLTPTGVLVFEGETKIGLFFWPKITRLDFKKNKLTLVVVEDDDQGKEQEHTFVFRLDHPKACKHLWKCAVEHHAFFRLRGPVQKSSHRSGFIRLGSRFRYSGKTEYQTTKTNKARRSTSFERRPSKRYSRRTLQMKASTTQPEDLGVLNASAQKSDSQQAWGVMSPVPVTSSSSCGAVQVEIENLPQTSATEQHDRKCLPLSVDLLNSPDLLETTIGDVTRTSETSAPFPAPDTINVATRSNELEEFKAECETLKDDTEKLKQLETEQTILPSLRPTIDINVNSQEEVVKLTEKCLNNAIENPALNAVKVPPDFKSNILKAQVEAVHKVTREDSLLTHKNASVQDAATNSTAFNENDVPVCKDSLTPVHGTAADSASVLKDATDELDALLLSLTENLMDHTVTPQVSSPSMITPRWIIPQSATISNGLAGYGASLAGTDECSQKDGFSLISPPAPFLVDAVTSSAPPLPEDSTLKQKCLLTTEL
UniProt Q80Y19: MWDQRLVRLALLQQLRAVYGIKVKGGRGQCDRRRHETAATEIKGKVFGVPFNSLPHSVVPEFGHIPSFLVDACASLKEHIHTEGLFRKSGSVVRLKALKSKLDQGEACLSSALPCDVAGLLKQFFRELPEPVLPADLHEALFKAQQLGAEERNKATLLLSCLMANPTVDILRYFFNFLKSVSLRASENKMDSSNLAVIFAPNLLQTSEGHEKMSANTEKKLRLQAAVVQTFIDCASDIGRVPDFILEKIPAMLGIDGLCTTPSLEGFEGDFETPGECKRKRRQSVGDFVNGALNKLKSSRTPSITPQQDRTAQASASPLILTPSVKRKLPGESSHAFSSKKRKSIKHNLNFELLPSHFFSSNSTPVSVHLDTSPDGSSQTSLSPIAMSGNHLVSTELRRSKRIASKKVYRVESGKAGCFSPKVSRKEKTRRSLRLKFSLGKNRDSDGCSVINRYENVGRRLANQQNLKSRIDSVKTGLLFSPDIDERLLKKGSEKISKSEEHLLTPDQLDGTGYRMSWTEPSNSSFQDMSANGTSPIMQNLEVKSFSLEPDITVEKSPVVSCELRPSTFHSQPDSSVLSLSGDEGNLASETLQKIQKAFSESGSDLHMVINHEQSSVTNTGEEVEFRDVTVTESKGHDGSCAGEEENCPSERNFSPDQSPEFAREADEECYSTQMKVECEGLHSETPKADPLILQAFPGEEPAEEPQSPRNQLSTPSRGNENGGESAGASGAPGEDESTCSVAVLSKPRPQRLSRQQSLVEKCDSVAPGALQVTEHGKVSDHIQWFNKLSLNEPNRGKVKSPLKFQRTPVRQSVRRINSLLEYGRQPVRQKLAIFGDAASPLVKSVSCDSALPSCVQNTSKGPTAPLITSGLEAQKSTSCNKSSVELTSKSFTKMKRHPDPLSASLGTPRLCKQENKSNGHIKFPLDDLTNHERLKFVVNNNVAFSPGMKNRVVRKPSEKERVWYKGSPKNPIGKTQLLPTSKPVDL
UniProt Q812A2: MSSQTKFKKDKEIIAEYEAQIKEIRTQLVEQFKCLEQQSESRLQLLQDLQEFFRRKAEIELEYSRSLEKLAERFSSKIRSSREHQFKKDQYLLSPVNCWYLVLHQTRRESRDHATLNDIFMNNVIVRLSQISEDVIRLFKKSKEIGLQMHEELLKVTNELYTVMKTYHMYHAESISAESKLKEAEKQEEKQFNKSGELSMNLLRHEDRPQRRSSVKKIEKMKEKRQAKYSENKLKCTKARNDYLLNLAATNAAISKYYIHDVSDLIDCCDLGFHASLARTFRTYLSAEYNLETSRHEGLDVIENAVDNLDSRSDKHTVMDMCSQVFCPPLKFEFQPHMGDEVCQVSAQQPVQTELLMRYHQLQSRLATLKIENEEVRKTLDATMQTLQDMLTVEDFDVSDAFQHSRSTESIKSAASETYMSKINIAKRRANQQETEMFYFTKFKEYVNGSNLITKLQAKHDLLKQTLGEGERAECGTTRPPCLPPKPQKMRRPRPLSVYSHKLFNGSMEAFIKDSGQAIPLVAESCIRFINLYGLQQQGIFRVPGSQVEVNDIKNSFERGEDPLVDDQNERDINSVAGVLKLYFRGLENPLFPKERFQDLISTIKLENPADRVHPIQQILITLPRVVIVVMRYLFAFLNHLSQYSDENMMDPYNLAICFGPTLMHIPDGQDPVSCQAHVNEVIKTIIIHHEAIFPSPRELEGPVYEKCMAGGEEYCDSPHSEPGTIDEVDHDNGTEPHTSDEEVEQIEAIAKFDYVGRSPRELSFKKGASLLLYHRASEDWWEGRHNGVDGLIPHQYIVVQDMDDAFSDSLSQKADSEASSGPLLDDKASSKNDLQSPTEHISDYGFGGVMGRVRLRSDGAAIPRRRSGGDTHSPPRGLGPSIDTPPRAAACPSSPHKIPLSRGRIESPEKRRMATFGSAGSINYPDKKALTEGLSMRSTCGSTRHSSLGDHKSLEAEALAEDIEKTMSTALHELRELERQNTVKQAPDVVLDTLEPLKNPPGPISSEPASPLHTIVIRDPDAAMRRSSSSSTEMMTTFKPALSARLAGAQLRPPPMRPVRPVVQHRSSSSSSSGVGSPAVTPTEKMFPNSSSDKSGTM
UniProt Q8BGI3: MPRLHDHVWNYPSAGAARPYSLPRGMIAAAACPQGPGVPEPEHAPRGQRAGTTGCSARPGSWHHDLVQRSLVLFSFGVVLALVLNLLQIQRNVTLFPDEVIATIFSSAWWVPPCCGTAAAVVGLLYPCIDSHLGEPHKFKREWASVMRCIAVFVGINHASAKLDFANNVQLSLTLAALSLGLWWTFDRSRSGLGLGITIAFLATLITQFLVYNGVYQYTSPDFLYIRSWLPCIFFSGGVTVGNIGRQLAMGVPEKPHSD
UniProt Q810D6, whole entry: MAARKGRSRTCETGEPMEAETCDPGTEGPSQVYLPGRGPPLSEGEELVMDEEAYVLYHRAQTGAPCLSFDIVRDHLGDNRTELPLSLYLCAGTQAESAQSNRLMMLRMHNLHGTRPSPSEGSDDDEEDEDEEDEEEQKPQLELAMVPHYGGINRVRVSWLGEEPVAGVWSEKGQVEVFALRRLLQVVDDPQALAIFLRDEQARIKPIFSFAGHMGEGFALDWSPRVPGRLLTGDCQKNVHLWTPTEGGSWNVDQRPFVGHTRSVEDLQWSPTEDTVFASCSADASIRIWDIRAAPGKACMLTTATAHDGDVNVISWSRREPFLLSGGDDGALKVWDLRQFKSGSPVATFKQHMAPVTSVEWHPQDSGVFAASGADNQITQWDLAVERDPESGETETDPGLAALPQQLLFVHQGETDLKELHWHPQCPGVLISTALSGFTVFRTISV

The list shows a part of the results. Most entries show no effect beyond the scatter of the controls.

Compound in this assay: CN[C@@H]1C[C@H]2O[C@@](C)([C@@H]1OC)n1c3ccccc3c3c4c(c5c6ccccc6n2c5c31)C(=O)NC4 [staurosporine]
The assay can be described thus: log2 fold change of tryptic peptide abundance, ligand vs vehicle (limited proteolysis) (log2 ratio); higher = more trypsin-susceptible (destabilized). The conditions noted are these: ligand concentration: 20 uM; sample: mouse liver crude lysate; replicate design: treated separately.
As to “UniProt Q8BHB0 (peptide sequence: YVAQILDECR, peptide start residue: 775)”, the log2 fold change was 0.426.
“UniProt Q8BG40 (peptide sequence: KGHDTMFVVLTSR, peptide start residue: 496)”: the log2 fold change came to 0.139.
On to “UniProt Q80ZI6 (peptide sequence: VGVSEAGLQHEILR, peptide start residue: 611)”, for which the log2 fold change was determined as 0.531.
As to “UniProt Q80XU3 (peptide sequence: LKATVTPSPVKGK, peptide start residue: 174)”, the log2 fold change is -0.162.
The value for “UniProt Q80ZK9 (peptide sequence: GKFPEQAHSSACDALGR, peptide start residue: 460)” was 0.365; that for “UniProt Q80XM9 (peptide sequence: SFAATDSKDEELR, peptide start residue: 110)” was 0.0988.
The value for “UniProt Q80W37 (peptide sequence: RLDYVNHAR, peptide start residue: 55)” was -0.399; that for “UniProt Q8BGV4 (peptide sequence: FFEGSGSGGSLR, peptide start residue: 67)” was 0.102.
For “UniProt Q80WC1 (peptide sequence: LVHTEDPFTDEHKER, peptide start residue: 145)”, the log2 fold change is -0.203.
As for “UniProt Q80Y81 (peptide sequence: NVQENPAPAEKR, peptide start residue: 462)”, the log2 fold change was 0.9.
Regarding “UniProt Q8BFP9 (peptide sequence: ALSTESVERLPVYNK, peptide start residue: 389)”, the log2 fold change is -0.18.
In the case of “UniProt Q8BGA7 (peptide sequence: TPVVYCVR, peptide start residue: 140)” it was 0.381.
In the case of “UniProt Q8BG81 (peptide sequence: CLDGQPMK, peptide start residue: 338)” it was 0.425.
In the case of “UniProt Q8BH66 (peptide sequence: ILLSQAVR, peptide start residue: 56)”, the log2 fold change was 0.387.
The value for “UniProt Q8BHT7 (peptide sequence: GTGVAPSVSHVTHAR, peptide start residue: 274)” was -0.486; that for “UniProt Q8BFT2 (peptide sequence: FHETLEQR, peptide start residue: 111)” was 0.231.
In the case of “UniProt Q80XJ2 (peptide sequence: LLALQLQK, peptide start residue: 447)”, the log2 fold change was -0.239.
The value for “UniProt Q80X85 (peptide sequence: SLMAQTLEAVKR, peptide start residue: 109)” was 0.255; that for “UniProt Q80X73 (peptide sequence: CVLVASPGFVR, peptide start residue: 204)” was 0.0804.
Take “UniProt Q8BGQ7 (peptide sequence: GGYVLHIGTIYGNLK, peptide start residue: 570)”: the log2 fold change was determined as 0.625.
With “UniProt Q80ZU4 (peptide sequence: QQVEAHPVSR, peptide start residue: 79)”, the log2 fold change is -0.151.
Take “UniProt Q80XQ2 (peptide sequence: PATYQFHPNLDYYK, peptide start residue: 420)”: the log2 fold change came to 0.249.
Regarding “UniProt Q80W71 (peptide sequence: MKHPIIPIHNSLER, peptide start residue: 200)”, the log2 fold change came to 0.416.
In the case of “UniProt Q80Y61 (peptide sequence: LRPTVTNDR, peptide start residue: 500)” it was -0.0894.
The value for “UniProt Q811D0 (peptide sequence: AVLGDDEITREPR, peptide start residue: 453)” was -0.504; that for “UniProt Q8BGS0 (peptide sequence: APLKGPLRK, peptide start residue: 266)” was -0.82.
In the case of “UniProt Q8BHS6 (peptide sequence: LNSSVQLAGLR, peptide start residue: 216)” it was -0.177.
Take “UniProt Q8BGS1 (peptide sequence: FMDSAQVAHWLDGTK, peptide start residue: 88)”: the log2 fold change is -0.287.
In the case of “UniProt Q80Y19 (peptide sequence: LALLQQLR, peptide start residue: 9)” it was 0.268; in that of “UniProt Q8BGV9 (peptide sequence: FLTAWNNVK, peptide start residue: 69)”, 0.144; in that of “UniProt Q812A2 (peptide sequence: RPRPLSVYSHK, peptide start residue: 492)”, 0.235.
The value for “UniProt Q8BGI3 (peptide sequence: QLAMGVPEKPHSD, peptide start residue: 247)” was -0.24; that for “UniProt Q80ZV0 (peptide sequence: SIDAFFGAK, peptide start residue: 293)” was 0.168; that for “UniProt Q8BH70 (peptide sequence: GDMMNSHR, peptide start residue: 29)” was -0.0805.
In the case of “UniProt Q810D6 (peptide sequence: SGSPVATFK, peptide start residue: 342)” it was 0.119; in that of “UniProt Q8BH58 (peptide sequence: LKVVPTTDHIDTEKLK, peptide start residue: 127)”, -0.153.
